{
  "source": "the supplement of paper PMC8728848",
  "experiment_in_all_cases": "glycan array binding signal (z-score within array); higher = stronger binding",
  "settings_in_all_cases": "glycan notation: IUPAC condensed, linker removed",
  "key": {"[1]": {"target": "GlcNAc(b1-3)Gal(b1-4)GlcNAc(b1-3)Gal(b1-4)GlcNAc(b1-3)GalNAc", "outline": "(§1)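 Glycan array data were curated from 3228 arrays in the Consortium for Functional Glycomics database and kept only where the protein sequence was available. Glycan names were converted to IUPAC-condensed notation, and columns mapping to the same glycan were averaged. The binding signal is a within-array Z-score, averaged across arrays of the same protein sequence at different concentrations or buffers and across linkers. Negative Z-scores can be read as non-binding.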"}, "[2]": {"target": "GlcNAc(b1-3)Gal(b1-4)GlcNAc(b1-3)GalNAc", "outline": "as §1"}, "[3]": {"target": "GlcNAc(b1-3)Gal(b1-4)GlcNAc(b1-3)[GlcNAc(b1-3)Gal(b1-4)GlcNAc(b1-3)]GalNAc", "outline": "as §1"}, "[4]": {"target": "GlcNAc(b1-3)Gal(b1-4)GlcNAc(b1-6)[Gal(b1-3)]GalNAc", "outline": "as §1"}, "[5]": {"target": "GlcNAc(b1-3)Gal(b1-4)GlcNAc(b1-6)[GlcNAc(b1-3)Gal(b1-3)]GalNAc", "outline": "as §1"}, "[6]": {"target": "GlcNAc(b1-3)Gal(b1-4)GlcNAc(b1-6)[GlcNAc(b1-3)]Gal(b1-4)GlcNAc", "outline": "as §1"}, "GlcNAc(b1-3)GalNAc": {"target": "GlcNAc(b1-3)GalNAc", "outline": "as §1"}, "GlcNAc(b1-3)Man": {"target": "GlcNAc(b1-3)Man", "outline": "as §1"}, "[7]": {"target": "GlcNAc(b1-3)[GlcNAc(b1-4)][GlcNAc(b1-6)]GlcNAc", "outline": "as §1"}, "[8]": {"target": "GlcNAc(b1-3)[GlcNAc(b1-6)]Gal(b1-4)GlcNAc", "outline": "as §1"}, "[9]": {"target": "GlcNAc(b1-3)[GlcNAc(b1-6)]GalNAc", "outline": "as §1"}, "[10]": {"target": "GlcNAc(b1-4)Gal(b1-4)GlcNAc", "outline": "as §1"}, "GlcNAc(b1-4)GlcNAc": {"target": "GlcNAc(b1-4)GlcNAc", "outline": "as §1"}, "[11]": {"target": "GlcNAc(b1-4)GlcNAc(b1-4)GlcNAc", "outline": "as §1"}, "[12]": {"target": "GlcNAc(b1-4)GlcNAc(b1-4)GlcNAc(b1-4)GlcNAc(b1-4)GlcNAc", "outline": "as §1"}, "[13]": {"target": "GlcNAc(b1-4)GlcNAc(b1-4)GlcNAc(b1-4)GlcNAc(b1-4)GlcNAc(b1-4)GlcNAc", "outline": "as §1"}, "[14]": {"target": "GlcNAc(b1-4)[GlcNAc(b1-6)]GalNAc", "outline": "as §1"}, "[15]": {"target": "GlcNAc(b1-6)Gal(b1-4)GlcNAc", "outline": "as §1"}, "GlcNAc(b1-6)GalNAc": {"target": "GlcNAc(b1-6)GalNAc", "outline": "as §1"}, "[16]": {"target": "GlcNAc6S(b1-3)Gal(b1-4)GlcNAc", "outline": "as §1"}, "Kdn(a2-3)Gal(b1-3)GalNAc": {"target": "Kdn(a2-3)Gal(b1-3)GalNAc", "outline": "as §1"}, "Kdn(a2-3)Gal(b1-3)GlcNAc": {"target": "Kdn(a2-3)Gal(b1-3)GlcNAc", "outline": "as §1"}, "Kdn(a2-3)Gal(b1-4)Glc": {"target": "Kdn(a2-3)Gal(b1-4)Glc", "outline": "as §1"}, "Kdn(a2-3)Gal(b1-4)GlcNAc": {"target": "Kdn(a2-3)Gal(b1-4)GlcNAc", "outline": "as §1"}, "[17]": {"target": "Kdn(a2-3)Gal(b1-4)[Fuc(a1-3)]GlcNAc", "outline": "as §1"}, "Kdn(a2-6)Gal(b1-4)GlcNAc": {"target": "Kdn(a2-6)Gal(b1-4)GlcNAc", "outline": "as §1"}, "[18]": {"target": "Man(a1-2)Man(a1-2)Man(a1-3)Man", "outline": "as §1"}, "[19]": {"target": "Man(a1-2)Man(a1-2)Man(a1-6)[Man(a1-3)]Man", "outline": "as §1"}, "Man(a1-2)Man(a1-3)Man": {"target": "Man(a1-2)Man(a1-3)Man", "outline": "as §1"}, "[20]": {"target": "Man(a1-2)Man(a1-3)[Man(a1-2)Man(a1-6)]Man", "outline": "as §1"}, "[21]": {"target": "Man(a1-2)Man(a1-3)[Man(a1-2)Man(a1-6)]Man(a1-6)[Man(a1-2)Man(a1-2)Man(a1-3)]Man", "outline": "as §1"}, "[22]": {"target": "Man(a1-2)Man(a1-3)[Man(a1-2)Man(a1-6)]Man(a1-6)[Man(a1-2)Man(a1-2)Man(a1-3)]Man(b1-4)GlcNAc(b1-4)GlcNAc", "outline": "as §1"}, "[23]": {"target": "Man(a1-2)Man(a1-3)[Man(a1-6)]Man(a1-6)[Man(a1-2)Man(a1-3)]Man(b1-4)GlcNAc(b1-4)GlcNAc", "outline": "as §1"}, "[24]": {"target": "Man(a1-2)Man(a1-6)[Man(a1-3)]Man(a1-6)[Man(a1-2)Man(a1-2)Man(a1-3)]Man", "outline": "as §1"}, "[25]": {"target": "Man(a1-2)Man(a1-6)[Man(a1-3)]Man(a1-6)[Man(a1-2)Man(a1-2)Man(a1-3)]Man(b1-4)GlcNAc(b1-4)GlcNAc", "outline": "as §1"}, "Man(a1-3)[Man(a1-6)]Man": {"target": "Man(a1-3)[Man(a1-6)]Man", "outline": "as §1"}, "[26]": {"target": "Man(a1-3)[Man(a1-6)]Man(a1-6)[Man(a1-2)Man(a1-3)]Man(b1-4)GlcNAc(b1-4)GlcNAc", "outline": "as §1"}, "[27]": {"target": "Man(a1-3)[Man(a1-6)]Man(a1-6)[Man(a1-3)]Man", "outline": "as §1"}, "[28]": {"target": "Man(a1-3)[Man(a1-6)]Man(a1-6)[Man(a1-3)]Man(b1-4)GlcNAc(b1-4)GlcNAc", "outline": "as §1"}, "[29]": {"target": "Man(a1-3)[Man(a1-6)]Man(b1-4)GlcNAc(b1-4)GlcNAc", "outline": "as §1"}, "[30]": {"target": "Man(a1-3)[Man(a1-6)]Man(b1-4)GlcNAc(b1-4)[Fuc(a1-6)]GlcNAc", "outline": "as §1"}, "Man(a1-6)Man": {"target": "Man(a1-6)Man", "outline": "as §1"}, "Man(b1-4)GlcNAc": {"target": "Man(b1-4)GlcNAc", "outline": "as §1"}, "MurNAc(b1-4)GlcNAc": {"target": "MurNAc(b1-4)GlcNAc", "outline": "as §1"}, "Neu5Ac(a2-3)Gal": {"target": "Neu5Ac(a2-3)Gal", "outline": "as §1"}},
  "note": "Some of the results follow.",
  "data": [
    {"binder": "EUL D1A first (Oryza sativa) (protein) MFGFGHHHNQAPAAPSDPNQIFKIFCRANENYCLTVRDSAVVLAPVNPKDEHQHWFKDMRFSTKVKDGEGMPAFALVNKATGLAVKHSLGQSHPVKLVPFNPEYEDASVLWTESKDVGKGFRCIRMVNNTRLNLDAFHGDKDHGGVRDGTTVVLWEWCKGDNQSWKILPWGPEAHSSSPGAATILEQKLISEEDLNSAVDHHHHHH", "values": [
      {"measurement": "glycan array binding signal (z-score)", "setting": "[1]", "value": -0.04},
      {"measurement": "glycan array binding signal (z-score)", "setting": "[2]", "value": -0.003},
      {"measurement": "glycan array binding signal (z-score)", "setting": "[3]", "value": 1.74},
      {"measurement": "glycan array binding signal (z-score)", "setting": "[4]", "value": -0.67},
      {"measurement": "glycan array binding signal (z-score)", "setting": "[5]", "value": -0.216},
      {"measurement": "glycan array binding signal (z-score)", "setting": "[6]", "value": -0.411},
      {"measurement": "glycan array binding signal (z-score)", "setting": "GlcNAc(b1-3)GalNAc", "value": -0.716},
      {"measurement": "glycan array binding signal (z-score)", "setting": "GlcNAc(b1-3)Man", "value": 0.924},
      {"measurement": "glycan array binding signal (z-score)", "setting": "[7]", "value": 0.027},
      {"measurement": "glycan array binding signal (z-score)", "setting": "[8]", "value": 6.85},
      {"measurement": "glycan array binding signal (z-score)", "setting": "[9]", "value": -0.649},
      {"measurement": "glycan array binding signal (z-score)", "setting": "[10]", "value": -0.14},
      {"measurement": "glycan array binding signal (z-score)", "setting": "GlcNAc(b1-4)GlcNAc", "value": 0.742},
      {"measurement": "glycan array binding signal (z-score)", "setting": "[11]", "value": -0.702},
      {"measurement": "glycan array binding signal (z-score)", "setting": "[12]", "value": -1.15},
      {"measurement": "glycan array binding signal (z-score)", "setting": "[13]", "value": -0.541},
      {"measurement": "glycan array binding signal (z-score)", "setting": "[14]", "value": -0.149},
      {"measurement": "glycan array binding signal (z-score)", "setting": "[15]", "value": 0.186},
      {"measurement": "glycan array binding signal (z-score)", "setting": "GlcNAc(b1-6)GalNAc", "value": 0.78},
      {"measurement": "glycan array binding signal (z-score)", "setting": "[16]", "value": -1.18},
      {"measurement": "glycan array binding signal (z-score)", "setting": "Kdn(a2-3)Gal(b1-3)GalNAc", "value": 0.717},
      {"measurement": "glycan array binding signal (z-score)", "setting": "Kdn(a2-3)Gal(b1-3)GlcNAc", "value": 0.324},
      {"measurement": "glycan array binding signal (z-score)", "setting": "Kdn(a2-3)Gal(b1-4)Glc", "value": 0.202},
      {"measurement": "glycan array binding signal (z-score)", "setting": "Kdn(a2-3)Gal(b1-4)GlcNAc", "value": -1.25},
      {"measurement": "glycan array binding signal (z-score)", "setting": "[17]", "value": 0.073},
      {"measurement": "glycan array binding signal (z-score)", "setting": "Kdn(a2-6)Gal(b1-4)GlcNAc", "value": -0.931},
      {"measurement": "glycan array binding signal (z-score)", "setting": "[18]", "value": -1.22},
      {"measurement": "glycan array binding signal (z-score)", "setting": "[19]", "value": 2.01},
      {"measurement": "glycan array binding signal (z-score)", "setting": "Man(a1-2)Man(a1-3)Man", "value": 0.615},
      {"measurement": "glycan array binding signal (z-score)", "setting": "[20]", "value": -1.03},
      {"measurement": "glycan array binding signal (z-score)", "setting": "[21]", "value": -0.88},
      {"measurement": "glycan array binding signal (z-score)", "setting": "[22]", "value": -0.336},
      {"measurement": "glycan array binding signal (z-score)", "setting": "[23]", "value": 1.15},
      {"measurement": "glycan array binding signal (z-score)", "setting": "[24]", "value": -0.131},
      {"measurement": "glycan array binding signal (z-score)", "setting": "[25]", "value": -0.834},
      {"measurement": "glycan array binding signal (z-score)", "setting": "Man(a1-3)[Man(a1-6)]Man", "value": 0.007},
      {"measurement": "glycan array binding signal (z-score)", "setting": "[26]", "value": 0.578},
      {"measurement": "glycan array binding signal (z-score)", "setting": "[27]", "value": -1.5},
      {"measurement": "glycan array binding signal (z-score)", "setting": "[28]", "value": -0.508},
      {"measurement": "glycan array binding signal (z-score)", "setting": "[29]", "value": 0.653},
      {"measurement": "glycan array binding signal (z-score)", "setting": "[30]", "value": -0.172},
      {"measurement": "glycan array binding signal (z-score)", "setting": "Man(a1-6)Man", "value": -0.455},
      {"measurement": "glycan array binding signal (z-score)", "setting": "Man(b1-4)GlcNAc", "value": -0.261},
      {"measurement": "glycan array binding signal (z-score)", "setting": "MurNAc(b1-4)GlcNAc", "value": -0.04},
      {"measurement": "glycan array binding signal (z-score)", "setting": "Neu5Ac(a2-3)Gal", "value": -1.02}
    ]}
  ]
}
